Laboratory results: PubChem BioAssay AID1259308 (NCATS, 2017)
Purpose: 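Knock-downs that increase output of a recombinant reporter protein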 (primary screen). Cell system: human HEK293 embryonic kidney cells stably expressing firefly luciferase (HEK-CMV-Luc2-Hygro). Knock-down reagent: single siRNA against human genes, 0.8 pmol siRNA per well. Duration: 72 h. Detection: 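Reporter luminescence and viable-cell signal on separate replicate plates, given as percent of non-targeting control and median/MAD z-scores, plus per-cell luciferase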. Direction: total luciferase, z-score and total luciferase, % of control: higher = more reporter protein produced; luciferase per cell, z-score: higher = more reporter output per viable cell; viable cells, % of control: higher = more viable cells. Hit rule: 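Active when the median/MAD z-score for overall luciferase is greater than 3; a gene was taken forward for validation with new siRNAs if at least two of its three siRNAs passed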. Meaning of the calls: active = raised luciferase; inactive = no rise.
Here is a random part of about 59,000 reagents tested. About 1,510 of all reagents (2.6%) were called active. 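Calls use total luciferase alone and ignore viability, so some active siRNAs may act by altering cell number.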 Reagents against one gene are numbered here.

target gene	siRNA no.	total luciferase, z-score	total luciferase, % of control	luciferase per cell, z-score	viable cells, % of control	Call
MAT2B (methionine adenosyltransferase 2 non-catalytic beta subunit)	1	-0.546	71	-0.869	99.8	inactive
MAT2B (methionine adenosyltransferase 2 non-catalytic beta subunit)	2	1.08	103	0.835	92.6	inactive
MAT2B (methionine adenosyltransferase 2 non-catalytic beta subunit)	3	1.48	111	1.01	95.2	inactive
SIX5 (SIX homeobox 5)	1	2.06	123	1.36	95.9	inactive
SIX5 (SIX homeobox 5)	2	1.29	107	1.24	86.6	inactive
SIX5 (SIX homeobox 5)	3	0.54	92.6	0.0884	101	inactive
KRT19 (keratin 19)	1	-1.56	50.9	0.381	51.4	inactive
KRT19 (keratin 19)	2	0.132	84.5	-0.54	109	inactive
KRT19 (keratin 19)	3	1.24	106	0.482	105	inactive

2 consecutive entries from above, for reference:
target gene	siRNA no.	total luciferase, z-score	total luciferase, % of control	luciferase per cell, z-score	viable cells, % of control	Call
SIX5 (SIX homeobox 5)	2	1.29	107	1.24	86.6	inactive
SIX5 (SIX homeobox 5)	3	0.54	92.6	0.0884	101	inactive

Further records:
target gene	siRNA no.	total luciferase, z-score	total luciferase, % of control	luciferase per cell, z-score	viable cells, % of control	Call
TOMM34 (translocase of outer mitochondrial membrane 34)	1	-1.99	42.2	-2.88	101	inactive
TOMM34 (translocase of outer mitochondrial membrane 34)	2	0.532	92.5	-0.0558	105	inactive
TOMM34 (translocase of outer mitochondrial membrane 34)	3	-1.02	61.6	-1.41	99.7	inactive
ZNF585B (zinc finger protein 585B)	1	-0.169	78.5	0.121	85	inactive
ZNF585B (zinc finger protein 585B)	2	-0.971	62.6	-1.16	94.9	inactive
ZNF585B (zinc finger protein 585B)	3	1.34	108	1.24	87.4	inactive
KIF14 (kinesin family member 14)	1	1.92	120	1.03	102	inactive
KIF14 (kinesin family member 14)	2	-1.73	47.5	-1.95	88.8	inactive
KIF14 (kinesin family member 14)	3	0.117	84.2	0.218	88.9	inactive
AKR1C2 (aldo-keto reductase family 1 member C2)	1	0.382	89.5	-0.124	103	inactive
AKR1C2 (aldo-keto reductase family 1 member C2)	2	-0.0765	80.4	-0.0421	90.8	inactive
AKR1C2 (aldo-keto reductase family 1 member C2)	3	-0.144	79	0.00866	88.1	inactive
HYOU1 (hypoxia up-regulated 1)	1	0.226	86.4	0.523	84.1	inactive
HYOU1 (hypoxia up-regulated 1)	2	-1.36	54.9	-0.927	78.3	inactive
HYOU1 (hypoxia up-regulated 1)	3	0.00944	82.1	0.179	87.5	inactive
